Measured values from the supplement of paper PMC12819154, “High-throughput peptide-centric local stability assay extends protein–ligand identification to membrane proteins, tissues and bacteria” (Nature Structural & Molecular Biology, 2025).
The list shows a part of the results. Most entries show no effect beyond the scatter of the controls.

By UniProt entry, the sequences of proteins in these tests, tags left out. Where a name states a change or a piece, a line headed by the entry shows the natural chain unless it says otherwise.
UniProt Q9ER71: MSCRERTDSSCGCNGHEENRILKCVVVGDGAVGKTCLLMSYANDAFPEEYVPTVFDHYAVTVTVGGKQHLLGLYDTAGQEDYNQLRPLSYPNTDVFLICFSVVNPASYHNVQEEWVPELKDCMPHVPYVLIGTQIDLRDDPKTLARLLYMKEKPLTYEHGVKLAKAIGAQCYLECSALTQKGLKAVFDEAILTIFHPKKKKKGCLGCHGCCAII
UniProt Q9DCM4: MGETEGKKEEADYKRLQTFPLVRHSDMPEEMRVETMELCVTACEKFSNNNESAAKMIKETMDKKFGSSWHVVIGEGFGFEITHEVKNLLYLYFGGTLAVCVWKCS
UniProt Q9DB42: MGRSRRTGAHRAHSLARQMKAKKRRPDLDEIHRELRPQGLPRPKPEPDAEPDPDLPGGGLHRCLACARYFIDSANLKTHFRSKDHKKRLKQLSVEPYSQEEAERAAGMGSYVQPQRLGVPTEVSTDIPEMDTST
UniProt Q9DBG1: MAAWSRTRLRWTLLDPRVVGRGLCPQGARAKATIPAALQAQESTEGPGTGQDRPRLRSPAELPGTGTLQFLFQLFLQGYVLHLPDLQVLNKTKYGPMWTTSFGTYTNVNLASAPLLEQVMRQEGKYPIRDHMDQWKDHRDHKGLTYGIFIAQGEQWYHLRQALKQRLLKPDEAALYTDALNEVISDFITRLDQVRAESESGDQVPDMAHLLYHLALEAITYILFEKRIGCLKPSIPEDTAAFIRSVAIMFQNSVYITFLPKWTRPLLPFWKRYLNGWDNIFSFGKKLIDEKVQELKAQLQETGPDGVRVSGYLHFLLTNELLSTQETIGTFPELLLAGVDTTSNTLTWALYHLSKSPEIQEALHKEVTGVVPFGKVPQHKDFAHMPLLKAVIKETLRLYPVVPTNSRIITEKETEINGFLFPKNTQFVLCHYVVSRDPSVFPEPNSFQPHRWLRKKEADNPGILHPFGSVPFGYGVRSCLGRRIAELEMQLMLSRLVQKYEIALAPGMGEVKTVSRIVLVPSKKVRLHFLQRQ
UniProt Q9DBM0: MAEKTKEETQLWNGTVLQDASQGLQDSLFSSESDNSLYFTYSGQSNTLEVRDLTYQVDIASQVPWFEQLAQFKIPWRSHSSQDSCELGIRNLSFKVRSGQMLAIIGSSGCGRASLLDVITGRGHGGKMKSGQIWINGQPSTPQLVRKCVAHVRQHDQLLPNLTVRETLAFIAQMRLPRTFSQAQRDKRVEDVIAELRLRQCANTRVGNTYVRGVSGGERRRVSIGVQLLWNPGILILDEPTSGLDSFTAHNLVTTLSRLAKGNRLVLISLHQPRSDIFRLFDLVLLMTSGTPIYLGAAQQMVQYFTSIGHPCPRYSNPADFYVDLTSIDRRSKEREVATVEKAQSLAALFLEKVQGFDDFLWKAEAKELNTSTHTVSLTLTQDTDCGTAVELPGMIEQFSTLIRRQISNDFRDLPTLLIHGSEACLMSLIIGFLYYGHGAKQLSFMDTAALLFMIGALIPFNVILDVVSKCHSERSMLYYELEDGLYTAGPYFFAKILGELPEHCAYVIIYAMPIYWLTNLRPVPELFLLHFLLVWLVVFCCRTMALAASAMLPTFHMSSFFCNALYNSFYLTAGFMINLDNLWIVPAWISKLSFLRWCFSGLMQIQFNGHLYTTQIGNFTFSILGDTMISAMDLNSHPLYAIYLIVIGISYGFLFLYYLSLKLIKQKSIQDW
UniProt Q9DCT8: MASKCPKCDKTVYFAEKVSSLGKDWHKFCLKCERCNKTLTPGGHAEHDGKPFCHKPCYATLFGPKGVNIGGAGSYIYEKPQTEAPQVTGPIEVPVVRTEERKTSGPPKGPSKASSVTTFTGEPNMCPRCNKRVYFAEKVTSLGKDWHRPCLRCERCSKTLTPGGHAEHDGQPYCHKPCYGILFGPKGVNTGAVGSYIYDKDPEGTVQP
UniProt Q9DB10: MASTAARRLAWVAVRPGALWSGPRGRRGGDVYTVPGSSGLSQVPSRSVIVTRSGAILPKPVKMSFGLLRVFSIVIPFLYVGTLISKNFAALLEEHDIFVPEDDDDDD
UniProt Q9DBR3, whole entry: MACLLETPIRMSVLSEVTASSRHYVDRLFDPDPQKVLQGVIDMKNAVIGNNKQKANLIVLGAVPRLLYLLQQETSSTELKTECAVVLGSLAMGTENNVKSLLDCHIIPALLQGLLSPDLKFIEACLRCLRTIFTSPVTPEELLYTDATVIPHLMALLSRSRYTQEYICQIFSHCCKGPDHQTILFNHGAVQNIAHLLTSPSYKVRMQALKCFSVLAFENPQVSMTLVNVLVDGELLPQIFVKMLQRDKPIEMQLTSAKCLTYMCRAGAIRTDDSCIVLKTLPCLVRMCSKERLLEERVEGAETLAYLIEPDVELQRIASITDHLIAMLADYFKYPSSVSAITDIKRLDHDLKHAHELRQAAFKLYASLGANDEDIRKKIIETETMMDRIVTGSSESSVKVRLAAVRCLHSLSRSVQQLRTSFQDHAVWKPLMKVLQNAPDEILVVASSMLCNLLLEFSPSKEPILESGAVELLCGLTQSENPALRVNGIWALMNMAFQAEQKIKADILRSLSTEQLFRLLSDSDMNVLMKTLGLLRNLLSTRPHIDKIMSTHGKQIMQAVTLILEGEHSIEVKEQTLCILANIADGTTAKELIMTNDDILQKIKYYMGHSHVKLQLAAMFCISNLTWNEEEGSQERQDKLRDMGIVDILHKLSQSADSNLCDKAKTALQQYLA
UniProt Q9EP96: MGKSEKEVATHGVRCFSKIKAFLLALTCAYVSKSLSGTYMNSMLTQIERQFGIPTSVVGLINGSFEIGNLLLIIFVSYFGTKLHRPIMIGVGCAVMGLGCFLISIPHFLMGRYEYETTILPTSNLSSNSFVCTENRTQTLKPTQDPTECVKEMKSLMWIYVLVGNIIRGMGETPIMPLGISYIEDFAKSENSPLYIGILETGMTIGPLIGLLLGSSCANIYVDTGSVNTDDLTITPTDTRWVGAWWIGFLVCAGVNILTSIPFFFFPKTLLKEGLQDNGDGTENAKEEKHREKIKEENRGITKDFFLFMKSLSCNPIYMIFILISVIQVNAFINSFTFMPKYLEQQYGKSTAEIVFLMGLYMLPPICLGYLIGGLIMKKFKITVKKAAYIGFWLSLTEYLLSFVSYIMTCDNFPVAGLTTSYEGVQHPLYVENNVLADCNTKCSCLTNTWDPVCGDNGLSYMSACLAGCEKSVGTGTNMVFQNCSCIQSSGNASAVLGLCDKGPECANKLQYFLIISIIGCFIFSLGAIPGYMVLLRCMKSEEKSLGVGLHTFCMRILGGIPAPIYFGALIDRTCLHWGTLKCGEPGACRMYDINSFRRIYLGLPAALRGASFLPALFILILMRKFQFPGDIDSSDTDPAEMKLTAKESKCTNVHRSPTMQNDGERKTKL
UniProt Q9EPU0: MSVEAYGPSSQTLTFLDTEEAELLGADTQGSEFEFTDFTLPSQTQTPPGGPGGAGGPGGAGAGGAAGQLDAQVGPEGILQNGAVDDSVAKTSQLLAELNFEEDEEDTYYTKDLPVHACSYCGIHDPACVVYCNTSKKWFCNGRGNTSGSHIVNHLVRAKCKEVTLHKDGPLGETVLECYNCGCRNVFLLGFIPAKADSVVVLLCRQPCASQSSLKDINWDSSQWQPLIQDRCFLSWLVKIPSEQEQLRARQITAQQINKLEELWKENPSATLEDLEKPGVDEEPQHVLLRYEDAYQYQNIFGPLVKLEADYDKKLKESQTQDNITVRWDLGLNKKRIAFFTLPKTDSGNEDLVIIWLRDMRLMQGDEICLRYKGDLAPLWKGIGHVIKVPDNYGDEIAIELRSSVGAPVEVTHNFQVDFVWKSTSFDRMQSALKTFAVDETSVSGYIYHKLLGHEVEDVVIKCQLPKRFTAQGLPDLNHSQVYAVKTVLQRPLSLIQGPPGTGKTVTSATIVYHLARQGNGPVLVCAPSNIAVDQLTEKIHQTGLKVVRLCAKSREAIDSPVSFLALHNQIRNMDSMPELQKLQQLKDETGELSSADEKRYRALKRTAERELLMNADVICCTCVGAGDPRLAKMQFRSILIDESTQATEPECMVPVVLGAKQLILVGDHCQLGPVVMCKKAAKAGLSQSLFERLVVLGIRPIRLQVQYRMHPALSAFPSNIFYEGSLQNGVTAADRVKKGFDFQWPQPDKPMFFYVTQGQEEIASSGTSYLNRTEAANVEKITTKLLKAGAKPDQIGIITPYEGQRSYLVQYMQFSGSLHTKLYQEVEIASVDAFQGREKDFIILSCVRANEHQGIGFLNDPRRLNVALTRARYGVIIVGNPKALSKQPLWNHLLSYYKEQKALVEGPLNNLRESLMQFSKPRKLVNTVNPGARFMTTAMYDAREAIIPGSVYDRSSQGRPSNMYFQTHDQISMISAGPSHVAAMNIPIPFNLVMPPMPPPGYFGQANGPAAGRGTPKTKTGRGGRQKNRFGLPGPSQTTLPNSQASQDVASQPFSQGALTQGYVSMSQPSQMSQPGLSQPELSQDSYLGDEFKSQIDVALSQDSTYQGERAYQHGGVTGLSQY
UniProt Q9DB26: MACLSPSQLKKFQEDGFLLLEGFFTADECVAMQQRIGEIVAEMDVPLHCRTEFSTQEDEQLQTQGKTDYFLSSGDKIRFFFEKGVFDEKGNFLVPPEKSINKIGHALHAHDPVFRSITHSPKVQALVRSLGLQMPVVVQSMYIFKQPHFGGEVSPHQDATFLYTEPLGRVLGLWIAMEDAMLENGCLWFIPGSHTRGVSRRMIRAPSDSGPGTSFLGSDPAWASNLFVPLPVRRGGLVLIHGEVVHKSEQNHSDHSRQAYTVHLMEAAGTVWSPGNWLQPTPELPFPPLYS
UniProt Q9ERA6: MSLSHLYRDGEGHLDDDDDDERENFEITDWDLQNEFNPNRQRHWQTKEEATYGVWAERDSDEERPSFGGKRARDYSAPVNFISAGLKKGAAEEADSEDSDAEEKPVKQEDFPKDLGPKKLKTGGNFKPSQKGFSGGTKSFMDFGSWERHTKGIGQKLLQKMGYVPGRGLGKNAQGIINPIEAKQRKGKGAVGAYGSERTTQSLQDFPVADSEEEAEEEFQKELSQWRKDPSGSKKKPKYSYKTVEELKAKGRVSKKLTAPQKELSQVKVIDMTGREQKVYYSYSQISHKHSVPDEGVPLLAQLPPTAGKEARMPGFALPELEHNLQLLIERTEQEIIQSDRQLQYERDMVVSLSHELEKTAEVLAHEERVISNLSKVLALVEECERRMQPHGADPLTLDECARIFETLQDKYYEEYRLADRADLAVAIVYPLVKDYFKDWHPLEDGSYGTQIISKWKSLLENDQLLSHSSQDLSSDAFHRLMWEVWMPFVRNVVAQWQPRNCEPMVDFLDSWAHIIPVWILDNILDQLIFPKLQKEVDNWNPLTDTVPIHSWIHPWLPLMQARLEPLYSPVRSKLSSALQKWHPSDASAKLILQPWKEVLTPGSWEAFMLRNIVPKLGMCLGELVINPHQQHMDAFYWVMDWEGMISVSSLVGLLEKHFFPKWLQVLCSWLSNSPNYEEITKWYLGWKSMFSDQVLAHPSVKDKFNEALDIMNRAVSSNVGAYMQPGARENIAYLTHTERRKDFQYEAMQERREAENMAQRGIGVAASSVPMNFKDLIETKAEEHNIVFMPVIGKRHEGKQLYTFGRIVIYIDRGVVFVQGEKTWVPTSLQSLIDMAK
UniProt Q9DCN7: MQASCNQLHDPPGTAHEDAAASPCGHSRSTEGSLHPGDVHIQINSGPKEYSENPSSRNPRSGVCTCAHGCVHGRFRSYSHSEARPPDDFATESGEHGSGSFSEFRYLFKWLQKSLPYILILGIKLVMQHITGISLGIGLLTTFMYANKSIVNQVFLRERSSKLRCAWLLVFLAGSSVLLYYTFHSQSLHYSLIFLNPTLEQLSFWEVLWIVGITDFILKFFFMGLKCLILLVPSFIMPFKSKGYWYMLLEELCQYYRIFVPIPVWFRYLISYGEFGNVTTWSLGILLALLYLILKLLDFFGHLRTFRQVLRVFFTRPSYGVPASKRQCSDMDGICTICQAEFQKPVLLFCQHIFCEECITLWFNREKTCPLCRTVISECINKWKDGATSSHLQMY
UniProt Q9DBL7: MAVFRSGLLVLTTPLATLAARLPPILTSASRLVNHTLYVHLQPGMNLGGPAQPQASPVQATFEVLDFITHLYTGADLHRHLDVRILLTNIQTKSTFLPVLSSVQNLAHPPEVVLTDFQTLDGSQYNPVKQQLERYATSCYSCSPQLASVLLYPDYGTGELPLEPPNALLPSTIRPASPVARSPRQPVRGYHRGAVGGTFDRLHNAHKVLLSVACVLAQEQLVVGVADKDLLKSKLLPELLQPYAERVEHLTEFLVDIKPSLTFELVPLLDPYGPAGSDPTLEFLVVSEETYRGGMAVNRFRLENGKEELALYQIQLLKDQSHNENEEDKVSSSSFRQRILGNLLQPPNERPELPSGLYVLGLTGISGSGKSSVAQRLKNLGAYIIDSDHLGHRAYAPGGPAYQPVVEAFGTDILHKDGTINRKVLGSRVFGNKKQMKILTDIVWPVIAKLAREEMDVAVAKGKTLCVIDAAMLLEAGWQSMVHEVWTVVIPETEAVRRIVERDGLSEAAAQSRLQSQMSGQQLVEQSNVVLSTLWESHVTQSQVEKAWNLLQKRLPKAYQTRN

What follows are targets tested with CN[C@@H]1C[C@H]2O[C@@](C)([C@@H]1OC)n1c3ccccc3c3c4c(c5c6ccccc6n2c5c31)C(=O)NC4 [staurosporine] (assay: log2 fold change of tryptic peptide abundance, ligand vs vehicle (limited proteolysis) (log2 ratio); higher = more trypsin-susceptible (destabilized)). Conditions: ligand concentration: 20 uM; sample: mouse liver crude lysate; replicate design: treated separately.
Work on “UniProt Q9DB60 (peptide sequence: HAVTGEAVELR, peptide start residue: 16)” yielded a log2 fold change of 0.112.
For “UniProt Q9DB28 (peptide sequence: QLLILLQNCTDEGEREAIKK, peptide start residue: 121)”, the log2 fold change was -0.142.
“UniProt Q9ER71 (peptide sequence: EKPLTYEHGVK, peptide start residue: 152)” was tested, and the log2 fold change was 0.646.
“UniProt Q9DCM4 (peptide sequence: LQTFPLVR, peptide start residue: 16)” showed a log2 fold change of 0.024.
“UniProt Q9DB42 (peptide sequence: RRPDLDEIHR, peptide start residue: 24)” gave a log2 fold change of 0.489.
“UniProt Q9DBG1 (peptide sequence: EVTGVVPFGKVPQHK, peptide start residue: 366)” gave a log2 fold change of -0.185.
With “UniProt Q9DBM0 (peptide sequence: DKRVEDVIAELR, peptide start residue: 186)” the log2 fold change was -0.726.
Work on “UniProt Q9DCS3 (peptide sequence: NHSPDEFK, peptide start residue: 318)” yielded a log2 fold change of -0.391.
“UniProt Q9DC51 (peptide sequence: IDFGESAR, peptide start residue: 93)” was tested, and the log2 fold change was -0.204.
Work on “UniProt Q9DBY8 (peptide sequence: MKPRPGVFVDR, peptide start residue: 1)” yielded a log2 fold change of 0.297.
Target “UniProt Q9DCC4 (peptide sequence: AATMSAVEAATCRAKELSK, peptide start residue: 255)” has a log2 fold change of -0.36.
“UniProt Q9DCT8 (peptide sequence: RVYFAEK, peptide start residue: 132)” was tested, and the log2 fold change was -0.368.
Work on “UniProt Q9DBJ1 (peptide sequence: LVLIRHGESAWNLENR, peptide start residue: 6)” yielded a log2 fold change of -0.518.
Work on “UniProt Q9ER99 (peptide sequence: EAVVAGNLEK, peptide start residue: 97)” yielded a log2 fold change of 0.168.
With “UniProt Q9EQ80 (peptide sequence: KADFILSYHPPIFRPMK, peptide start residue: 84)” the log2 fold change was 0.345.
For “UniProt Q9DAZ9 (peptide sequence: VCKQCHTILTR, peptide start residue: 49)”, the log2 fold change was 0.622.
Work on “UniProt Q9DB10 (peptide sequence: PGALWSGPRGR, peptide start residue: 16)” yielded a log2 fold change of 0.526.
For “UniProt Q9EPT5 (peptide sequence: SVIAEETMK, peptide start residue: 289)”, the log2 fold change was -0.111.
“UniProt Q9DBR3 (peptide sequence: SLSTEQLFR, peptide start residue: 510)” was tested, and the log2 fold change was 0.238.
Work on “UniProt Q9EP97 (peptide sequence: TITYFDSQR, peptide start residue: 471)” yielded a log2 fold change of -0.233.
For “UniProt Q9DCJ5 (peptide sequence: LGWVRPDLGQLSK, peptide start residue: 115)”, the log2 fold change was 0.327.
Target “UniProt Q9DBY0 (peptide sequence: HLNTEHALDDR, peptide start residue: 332)” has a log2 fold change of -0.687.
With “UniProt Q9DBS2 (peptide sequence: QTLWPLNVHDPTRR, peptide start residue: 38)” the log2 fold change was 0.0488.
With “UniProt Q9EP96 (peptide sequence: SPTMQNDGER, peptide start residue: 657)” the log2 fold change was -0.148.
Work on “UniProt Q9EPU0 (peptide sequence: LMQGDEICLR, peptide start residue: 362)” yielded a log2 fold change of -0.394.
“UniProt Q9DB94 (peptide sequence: LDIEHGEK, peptide start residue: 319)” showed a log2 fold change of -0.264.
With “UniProt Q9ERS2 (peptide sequence: IALMPLFQAEKDRR, peptide start residue: 69)” the log2 fold change was -0.454.
Target “UniProt Q9EQH2 (peptide sequence: SQHSSSTSHWR, peptide start residue: 490)” has a log2 fold change of -0.0728.
In the case of “UniProt Q9DAW9 (peptide sequence: TKGFHTTIDIGVK, peptide start residue: 131)”, the log2 fold change is reported as -0.397.
“UniProt Q9DB26 (peptide sequence: IGEIVAEMDVPLHCR, peptide start residue: 36)” gave a log2 fold change of -0.411.
“UniProt Q9ERA6 (peptide sequence: DSDEERPSFGGKR, peptide start residue: 59)” was tested, and the log2 fold change was 0.336.
“UniProt Q9DBV4 (peptide sequence: VSVNTNAFAR, peptide start residue: 242)” showed a log2 fold change of 0.236.
In the case of “UniProt Q9DCC7 (peptide sequence: ILYFPQIVSK, peptide start residue: 31)”, the log2 fold change is reported as -0.202.
Target “UniProt Q9DCN7 (peptide sequence: STEGSLHPGDVHIQINSGPK, peptide start residue: 29)” has a log2 fold change of 0.165.
Work on “UniProt Q9DAV9 (peptide sequence: RQQQQFSSSEKK, peptide start residue: 248)” yielded a log2 fold change of 0.358.
With “UniProt Q9DBL7 (peptide sequence: GAVGGTFDR, peptide start residue: 193)” the log2 fold change was 0.0965.
For “UniProt Q9DCU6 (peptide sequence: DSAGLLDPVLRK, peptide start residue: 39)”, the log2 fold change was 0.524.
“UniProt Q9DBD2 (peptide sequence: SALTEPTLENK, peptide start residue: 249)” showed a log2 fold change of -0.127.
With “UniProt Q9EQY0 (peptide sequence: IEKEALDGPIVR, peptide start residue: 849)” the log2 fold change was 0.619.
